# Results published in PubChem BioAssay AID540275 (National Center for Advancing Translational Sciences (NCATS), 2011).
# The chains behind the UniProt entries cited, without tags or fusion partners.
# UniProt Q8NER1, whole entry, looked up: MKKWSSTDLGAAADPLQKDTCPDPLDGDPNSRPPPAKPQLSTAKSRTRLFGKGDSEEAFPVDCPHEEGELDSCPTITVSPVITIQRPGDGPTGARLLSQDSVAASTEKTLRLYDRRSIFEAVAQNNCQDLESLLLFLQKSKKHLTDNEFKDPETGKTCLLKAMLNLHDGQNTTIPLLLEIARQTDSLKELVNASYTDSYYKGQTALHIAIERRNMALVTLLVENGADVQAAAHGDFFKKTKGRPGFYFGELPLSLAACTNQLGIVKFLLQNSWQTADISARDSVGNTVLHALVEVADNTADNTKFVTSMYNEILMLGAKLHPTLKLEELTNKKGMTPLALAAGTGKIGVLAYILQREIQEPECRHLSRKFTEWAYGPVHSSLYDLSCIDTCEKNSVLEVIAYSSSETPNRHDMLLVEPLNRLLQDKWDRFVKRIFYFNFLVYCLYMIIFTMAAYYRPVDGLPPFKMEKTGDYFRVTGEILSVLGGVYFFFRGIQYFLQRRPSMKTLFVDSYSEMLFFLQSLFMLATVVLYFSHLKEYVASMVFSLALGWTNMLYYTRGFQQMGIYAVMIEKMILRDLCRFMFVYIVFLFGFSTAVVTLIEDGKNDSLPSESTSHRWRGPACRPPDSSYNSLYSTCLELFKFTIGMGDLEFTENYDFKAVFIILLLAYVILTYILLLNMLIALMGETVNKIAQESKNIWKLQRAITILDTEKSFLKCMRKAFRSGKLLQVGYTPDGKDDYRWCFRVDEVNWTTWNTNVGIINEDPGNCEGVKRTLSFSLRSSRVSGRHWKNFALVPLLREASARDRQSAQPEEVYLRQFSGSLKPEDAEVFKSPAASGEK
# Hit rate of the full screen: of about 320,000 compounds, about 620 (0.19%) were called active. Inconclusive results, whose numbers are uncertain, are shown with a selection of clear calls. No stated cut-off is given here; in the data, active means activation above about 80%; inconclusive means between about 30% and that limit; inactive means weaker than that.
# Biological target: Transient receptor potential cation channel subfamily V member 1 (Homo sapiens) (UniProt Q8NER1)
# Experiment: HTS Assay for Compounds that Act as Agonists of the Vanilloid Receptor 1; further: 0% is about no effect
# Details: TRPV1-expressing cells, Fluo-8 calcium influx, agonist mode; at 8.33 µM, stronger effect = higher value
# Summary of the method: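 Fluo-8 calcium influx in TRPV1-expressing cells, kinetic read (ex 480/em 520 nm). Compound added and read 3 min for agonist activity, followed by capsaicin at EC20 final and 2 min further read for enhancement.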
row,SMILES,activation
1,O=C(O/N=C(/c1ccccc1)c1ccncc1)c1ccccc1[N+](=O)[O-],inconclusive: 35.2%
2,O=C(Nc1ccc(F)cc1)c1cccc(N2C(=O)C3C4C=CC(C5CC45)C3C2=O)c1 (stereo not given),inactive: 24.7%
3,CC(=O)c1cccc(NC(=O)c2ccc(OCc3c(C)noc3C)cc2)c1,inconclusive: 57.4%
4,CCCC(=O)Nc1cccc(NC(=O)c2ccc([N+](=O)[O-])cc2Cl)c1,inactive: -3.47%
5,COc1ccc2c(Cl)c(C(=O)NCCCn3ccnc3)sc2c1Cl,inactive: 1.42%
6,CCOCCCN(C)C1CCN(C(=O)c2oc3ccccc3c2NC(=O)Cc2ccc([N+](=O)[O-])cc2)CC1,inactive: -2.49%
7,COc1ccc(OC)c(/C=N/NC(=O)CC2C(=O)NN=C2C)c1 (stereo not given),inactive: -1.38%
8,N#Cc1c(C#N)c(-c2ccccc2)n(-c2ccccc2)c1N,inactive: -0.001%
9,Cc1ccc(C)c(OCc2cc(C(=O)NC(C)c3cnn(C)c3)no2)c1 (stereo not given),inconclusive: 64.4%
10,Cc1ccc(SCC(=O)OCC(=O)Nc2ccc3[nH]c(=O)[nH]c3c2)cc1C,inconclusive: 52.4%
11,COc1cc(OC)cc(C(=O)NCC(=O)Nc2ccc(-c3ccccc3)cc2)c1,inactive: 4.34%
12,FC(F)(F)c1cc(C(F)(F)F)c2ccc(N3CCN(c4ccc(Cl)cc4)CC3)nc2n1,inactive: 1.18%
13,O=C(NNC(=O)C1CC1c1ccccc1)c1ccccc1F (stereo not given),inactive: 0.288%
14,CCCSc1ccc([C@H]2N[C@@](Cc3ccccc3)(C(=O)OC)[C@H]3C(=O)N(CC)C(=O)[C@@H]23)cc1,inconclusive: 35.8%
15,CCc1cc(C(=O)Nc2ccccc2)cs1,inconclusive: 48.4%
16,COc1ccc(C2(C)NC(=O)N(CC(=O)Nc3ccc(Br)c(C)c3)C2=O)cc1OC (stereo not given),inconclusive: 36.3%
17,COc1ccc(CC(=O)N(C)Cc2ccc(Cl)cc2)cc1S(=O)(=O)N1CCOCC1,inactive: -3.05%
18,CCOc1ccccc1NCc1cc(=O)oc2cc(C)ccc12,inconclusive: 40.9%
19,O=C1C=C(c2cccc(Cl)c2)C[C@@H](c2ccc(Cl)cc2)C1,inconclusive: 40.6%
20,CCCCCCC(=O)N(O)C1CC(=O)N(Cc2ccccc2)C1=O (stereo not given),inconclusive: 30.5%
21,CC(C)c1ccc(N2C(=O)C(Cl)=C(N3CCOCC3)C2=O)cc1,inconclusive: 61.4%
22,COc1cccc(N/C(N)=N/c2nc(CSc3ccccn3)cc(=O)[nH]2)c1,inactive: 3.64%
23,O=C(Nc1ccccc1Oc1cccnc1)C1CCCN(Cc2ccc(F)cc2)C1 (stereo not given),inconclusive: 40%

row,SMILES,activation
1,C[n+]1cn(CC(O)COCc2ccccc2)c2ccccc21 (stereo not given),inactive: -8.12%
2,Cc1cccc(OCCCC(=O)Nc2nccs2)c1C,inconclusive: 32.2%
3,CC(=O)Oc1ccc2c(c1)OC(c1ccccc1)CC21CC(C)(C)NC(=O)N1 (stereo not given),inconclusive: 34.5%
4,O=C(COC(=O)c1cccc(Oc2ccccc2)c1)NCc1ccco1,inconclusive: 37.9%
5,CC1CCN(C(=O)COC(=O)CNC(=O)c2ccccc2F)CC1,inactive: 3.19%
6,Cc1ccc2nc(-c3ccccc3)cc(C(=O)N3CC(C)OC(C)C3)c2c1 (stereo not given),inconclusive: 51.3%
7,Oc1ccc2ccccc2c1C=NCc1ccccc1,inconclusive: 69.3%
8,O=C(NCc1ccc(F)cc1)C1CCN(S(=O)(=O)c2ccc(Br)s2)CC1,inconclusive: 44.5%
9,O=C(CC1CCCCC1)NCc1ccc(F)cc1,inconclusive: 38.6%
10,CCOC(=O)CSc1nc2cc(C(=O)N3CCC(C(N)=O)CC3)ccc2c(=O)n1C1CCCCC1,inconclusive: 73.1%
11,O=C(c1ccc(Br)cc1)c1sc(N2CCOCC2)nc1-c1ccccc1,inconclusive: 52.5%
12,Nc1c(C(=O)c2ccccc2)sc2nsc(SCCN3CCOCC3)c12,active: 106%
13,O=C(CN1C(=O)NC2(CCOc3ccccc32)C1=O)Nc1cccc(Cl)c1 (stereo not given),inconclusive: 43.6%
14,O=c1[nH]c2cc3c(cc2cc1C(c1nnnn1C1CCCC1)N1CCSCC1)OCCO3 (stereo not given),inconclusive: 41.7%
15,CC(C)(C)c1ccc(C(=O)NC(=S)Nc2ccc(N3CCOCC3)cc2)cc1,inactive: -1.15%
16,CCCCOc1ccc(-c2nnc(-c3ccncc3)o2)cc1,inconclusive: 56.1%
17,COc1ccc(OCC(=O)NNC(=S)NC(=O)C2CC2)cc1,inactive: -3.48%
18,Cc1cc2cc(CN(CC3CCCO3)C(=S)Nc3ccccc3)c(=O)[nH]c2cc1C (stereo not given),inconclusive: 56.4%
19,CCOCCCNC(=O)/C(C#N)=C/c1ccc(Cl)c([N+](=O)[O-])c1,inactive: 6.54%
20,COc1cc(/C=C2\CCc3ccccc3C2=O)cc(OC)c1OC,inconclusive: 41.5%
21,C/C(=C\c1ccccc1)CN1CCC(C(=O)N2CCC(C)CC2)CC1,inconclusive: 42%
22,O=C(CC12CC3CC(CC(C3)C1)C2)NCc1ccccc1,inconclusive: 35.8%
23,CCOc1ccccc1NC(=O)Cn1c(-c2ccc(Cl)cc2)noc1=O,inconclusive: 61.3%

row,SMILES,activation
1,COc1cc(S(=O)(=O)N2CCCCC2)ccc1NC(=O)c1ccc(F)cc1,inconclusive: 60.2%
2,C=CCOc1c(CNc2ccc3[nH]c(=O)[nH]c3c2)cccc1OC,inconclusive: 57.9%
3,Cc1cccc(C)c1N1CCN(CCn2c(=S)[nH]c3ccccc3c2=O)CC1,inactive: 25.1%
4,O=C(c1ccc(-c2cc(Cl)ccc2Cl)o1)N1CCOCC1,inconclusive: 48%
5,N=c1ncn(CC(O)CN2CCOCC2)c2nc(N3CCOCC3)[nH]c12 (stereo not given),inactive: 2.01%
6,COc1cccc(-c2ncc3ccccc3c2COC(=O)N2CCCCC2)c1,inconclusive: 54.4%
7,O=C(Nc1cccnc1)c1cc(-c2cccc(Cl)c2)on1,inconclusive: 54.2%
8,CCOC(=O)C1(CCOc2ccccc2)CCN(Cc2nccn2CC)CC1,inactive: 7.52%
9,O=C(NCCc1ccccc1F)c1ccc2c(c1)OCCO2,inconclusive: 51%
10,N#C/C(=C\C=C\c1ccccc1)C(=O)NCc1cccnc1,inconclusive: 43%
11,O=C(NCCC1=CCCCC1)C1COc2ccccc2O1 (stereo not given),inconclusive: 51%
12,N#CC(C#N)=C1C=C2C=C(N3CCCCC3)CCC2CC1 (stereo not given),active: 102%
13,O=C(CCN1C(=O)/C(=C\c2ccccc2Cl)SC1=S)Nc1cccnc1,inconclusive: 53.6%
14,CN=C(C)c1c(O)c2ccccc2oc1=O,inactive: 7.02%
15,COc1ccc(OC)c(NC(=O)C(CC(C)C)NC(=O)C2CCCCC2)c1 (stereo not given),inconclusive: 38.6%
16,Cc1cc(NC(=O)c2ccoc2C)ccc1Br,inconclusive: 37.4%
17,O=C(OCc1nnc(-c2ccccc2)o1)C12CC3CC(CC(Br)(C3)C1)C2,inconclusive: 42.5%
18,Cc1ccc(NC(=O)COC(=O)CCc2ccccc2)c(Cl)c1,inconclusive: 35.2%
19,Cc1ccc(F)c(Oc2cc(NN3CCCCC3)c([N+](=O)[O-])cc2[N+](=O)[O-])c1,inconclusive: 44.1%
20,Cc1cc(C(=O)CSc2nnc(N)s2)c(C)n1CCc1ccc(F)cc1,inconclusive: 35.9%
21,CC(NC(=O)CCCC1CCCCC1)c1ccc(S(N)(=O)=O)cc1 (stereo not given),inconclusive: 62.1%
22,CCOc1ccc(-c2c(=O)n(OCc3ccccn3)c3ccccc3[n+]2[O-])cc1,inconclusive: 43.3%
23,CCn1nc(C)cc1C(=O)OCC(=O)c1ccc(Cl)cc1,inactive: 7.59%

# Some values from the entries so far:
# activation, O=C(CCN1C(=O)/C(=C\c2ccccc2Cl)SC1=S)Nc1cccnc1 reads inconclusive: 53.6%
# activation, N=c1ncn(CC(O)CN2CCOCC2)c2nc(N3CCOCC3)[nH]c12 (stereo not given) reads inactive: 2.01%
# activation, C=CCOc1c(CNc2ccc3[nH]c(=O)[nH]c3c2)cccc1OC reads inconclusive: 57.9%
# activation, CCOC(=O)C1(CCOc2ccccc2)CCN(Cc2nccn2CC)CC1 reads inactive: 7.52%

# Next part.

row,SMILES,activation
1,Cc1nc(N2CCOCC2)c2c(C)c(C(=O)Nc3ccccc3C(F)(F)F)sc2n1,active: 90.5%
2,CC1C/C(=C/c2cccn2C)C(=O)/C(=C/c2cccn2C)C1 (stereo not given),active: 100%
3,CCOC(=O)Cc1csc(NC(=O)NC2(C(F)(F)F)Oc3cc(Cl)c(Cl)cc3O2)n1,inactive: 0.0436%
4,O=C(Nc1cccc(-c2nnc(-c3ccccc3)o2)c1)c1ccco1,inconclusive: 35.9%
5,S=C(NCc1ccncc1)Nc1ccc(Cl)cc1Cl,active: 80.3%
6,CCOc1ccccc1/C=C/c1onc(C)c1S(=O)(=O)N1CCC(C(=O)N2CCCCCC2)CC1,inconclusive: 32.5%
7,COc1ccc(C(=O)Nc2ccccc2C(=O)N/N=C/c2ccncc2)cc1OC,inconclusive: 65.9%
8,S=C(NCc1cccc(Cl)c1)NCc1ccco1,inconclusive: 56.3%
9,COc1ccc(OCc2nnc3n2N=C(c2ccc(C)cc2)CS3)cc1,inconclusive: 30.1%
10,O=C(NCC1CCCCC1)c1ccc([N+](=O)[O-])cc1,inconclusive: 55.7%
11,COCCCNC(=S)N1CCN(c2nc3ccccc3s2)CC1,inactive: 13.5%
12,O=C(Nc1ccc2cn[nH]c2c1)c1ccc(Cl)c(S(=O)(=O)N2CCOCC2)c1,inconclusive: 62.1%
13,Cc1cccc(C)c1NC(=O)C(NC=O)c1ccc(N(C)C)cc1 (stereo not given),inactive: -0.0683%
14,Cc1cc(F)c(F)c(C(=O)N2CCCCC2C)c1Cl (stereo not given),inactive: 16.1%
15,Cc1ccc(C2=NC3(CCCC3)N=C2SCC(=O)Nc2ccc3c(c2)OCCO3)cc1,inconclusive: 42.5%
16,CC(NC(=S)Nc1ccc(Cl)cc1Cl)C(c1cccs1)N1CCCC1 (stereo not given),inconclusive: 34.4%
17,COC(=O)c1cccc(NC(=O)/C=C/c2cccc([N+](=O)[O-])c2)c1,inconclusive: 30.7%
18,COC(=O)CCC(C)N1CCC(Oc2ccc(C(=O)N3CCCC3)cc2)CC1 (stereo not given),inactive: 24.1%
19,O=C(c1cc(-c2cccs2)on1)N1CCCc2ccccc21,inconclusive: 41.4%
20,O=[N+]([O-])c1cc2c(cc1/C=N/Nc1nc(N3CCCC3)nc(N3CCCC3)n1)OCO2,inconclusive: 35.2%
21,O=C(C#Cc1ccccc1)c1ccc([N+](=O)[O-])cc1,inactive: 19.1%
